Measurements: patent US20050250692A1
No constants are given. Whether binding was seen depends on the method and setting. Some binding calls cover weakened binding; strength is not graded here.

The chains behind the UniProt entries cited, without tags or fusion partners. Where a name states a change or a piece, a line headed by the entry shows the natural chain unless it says otherwise. A line that says so, or that is headed by a name, gives the form on record, which may keep a tag or linker. Residues count along the entry.
TβR-V purified from bovine liver plasma membranes (E1BGJ0, form named): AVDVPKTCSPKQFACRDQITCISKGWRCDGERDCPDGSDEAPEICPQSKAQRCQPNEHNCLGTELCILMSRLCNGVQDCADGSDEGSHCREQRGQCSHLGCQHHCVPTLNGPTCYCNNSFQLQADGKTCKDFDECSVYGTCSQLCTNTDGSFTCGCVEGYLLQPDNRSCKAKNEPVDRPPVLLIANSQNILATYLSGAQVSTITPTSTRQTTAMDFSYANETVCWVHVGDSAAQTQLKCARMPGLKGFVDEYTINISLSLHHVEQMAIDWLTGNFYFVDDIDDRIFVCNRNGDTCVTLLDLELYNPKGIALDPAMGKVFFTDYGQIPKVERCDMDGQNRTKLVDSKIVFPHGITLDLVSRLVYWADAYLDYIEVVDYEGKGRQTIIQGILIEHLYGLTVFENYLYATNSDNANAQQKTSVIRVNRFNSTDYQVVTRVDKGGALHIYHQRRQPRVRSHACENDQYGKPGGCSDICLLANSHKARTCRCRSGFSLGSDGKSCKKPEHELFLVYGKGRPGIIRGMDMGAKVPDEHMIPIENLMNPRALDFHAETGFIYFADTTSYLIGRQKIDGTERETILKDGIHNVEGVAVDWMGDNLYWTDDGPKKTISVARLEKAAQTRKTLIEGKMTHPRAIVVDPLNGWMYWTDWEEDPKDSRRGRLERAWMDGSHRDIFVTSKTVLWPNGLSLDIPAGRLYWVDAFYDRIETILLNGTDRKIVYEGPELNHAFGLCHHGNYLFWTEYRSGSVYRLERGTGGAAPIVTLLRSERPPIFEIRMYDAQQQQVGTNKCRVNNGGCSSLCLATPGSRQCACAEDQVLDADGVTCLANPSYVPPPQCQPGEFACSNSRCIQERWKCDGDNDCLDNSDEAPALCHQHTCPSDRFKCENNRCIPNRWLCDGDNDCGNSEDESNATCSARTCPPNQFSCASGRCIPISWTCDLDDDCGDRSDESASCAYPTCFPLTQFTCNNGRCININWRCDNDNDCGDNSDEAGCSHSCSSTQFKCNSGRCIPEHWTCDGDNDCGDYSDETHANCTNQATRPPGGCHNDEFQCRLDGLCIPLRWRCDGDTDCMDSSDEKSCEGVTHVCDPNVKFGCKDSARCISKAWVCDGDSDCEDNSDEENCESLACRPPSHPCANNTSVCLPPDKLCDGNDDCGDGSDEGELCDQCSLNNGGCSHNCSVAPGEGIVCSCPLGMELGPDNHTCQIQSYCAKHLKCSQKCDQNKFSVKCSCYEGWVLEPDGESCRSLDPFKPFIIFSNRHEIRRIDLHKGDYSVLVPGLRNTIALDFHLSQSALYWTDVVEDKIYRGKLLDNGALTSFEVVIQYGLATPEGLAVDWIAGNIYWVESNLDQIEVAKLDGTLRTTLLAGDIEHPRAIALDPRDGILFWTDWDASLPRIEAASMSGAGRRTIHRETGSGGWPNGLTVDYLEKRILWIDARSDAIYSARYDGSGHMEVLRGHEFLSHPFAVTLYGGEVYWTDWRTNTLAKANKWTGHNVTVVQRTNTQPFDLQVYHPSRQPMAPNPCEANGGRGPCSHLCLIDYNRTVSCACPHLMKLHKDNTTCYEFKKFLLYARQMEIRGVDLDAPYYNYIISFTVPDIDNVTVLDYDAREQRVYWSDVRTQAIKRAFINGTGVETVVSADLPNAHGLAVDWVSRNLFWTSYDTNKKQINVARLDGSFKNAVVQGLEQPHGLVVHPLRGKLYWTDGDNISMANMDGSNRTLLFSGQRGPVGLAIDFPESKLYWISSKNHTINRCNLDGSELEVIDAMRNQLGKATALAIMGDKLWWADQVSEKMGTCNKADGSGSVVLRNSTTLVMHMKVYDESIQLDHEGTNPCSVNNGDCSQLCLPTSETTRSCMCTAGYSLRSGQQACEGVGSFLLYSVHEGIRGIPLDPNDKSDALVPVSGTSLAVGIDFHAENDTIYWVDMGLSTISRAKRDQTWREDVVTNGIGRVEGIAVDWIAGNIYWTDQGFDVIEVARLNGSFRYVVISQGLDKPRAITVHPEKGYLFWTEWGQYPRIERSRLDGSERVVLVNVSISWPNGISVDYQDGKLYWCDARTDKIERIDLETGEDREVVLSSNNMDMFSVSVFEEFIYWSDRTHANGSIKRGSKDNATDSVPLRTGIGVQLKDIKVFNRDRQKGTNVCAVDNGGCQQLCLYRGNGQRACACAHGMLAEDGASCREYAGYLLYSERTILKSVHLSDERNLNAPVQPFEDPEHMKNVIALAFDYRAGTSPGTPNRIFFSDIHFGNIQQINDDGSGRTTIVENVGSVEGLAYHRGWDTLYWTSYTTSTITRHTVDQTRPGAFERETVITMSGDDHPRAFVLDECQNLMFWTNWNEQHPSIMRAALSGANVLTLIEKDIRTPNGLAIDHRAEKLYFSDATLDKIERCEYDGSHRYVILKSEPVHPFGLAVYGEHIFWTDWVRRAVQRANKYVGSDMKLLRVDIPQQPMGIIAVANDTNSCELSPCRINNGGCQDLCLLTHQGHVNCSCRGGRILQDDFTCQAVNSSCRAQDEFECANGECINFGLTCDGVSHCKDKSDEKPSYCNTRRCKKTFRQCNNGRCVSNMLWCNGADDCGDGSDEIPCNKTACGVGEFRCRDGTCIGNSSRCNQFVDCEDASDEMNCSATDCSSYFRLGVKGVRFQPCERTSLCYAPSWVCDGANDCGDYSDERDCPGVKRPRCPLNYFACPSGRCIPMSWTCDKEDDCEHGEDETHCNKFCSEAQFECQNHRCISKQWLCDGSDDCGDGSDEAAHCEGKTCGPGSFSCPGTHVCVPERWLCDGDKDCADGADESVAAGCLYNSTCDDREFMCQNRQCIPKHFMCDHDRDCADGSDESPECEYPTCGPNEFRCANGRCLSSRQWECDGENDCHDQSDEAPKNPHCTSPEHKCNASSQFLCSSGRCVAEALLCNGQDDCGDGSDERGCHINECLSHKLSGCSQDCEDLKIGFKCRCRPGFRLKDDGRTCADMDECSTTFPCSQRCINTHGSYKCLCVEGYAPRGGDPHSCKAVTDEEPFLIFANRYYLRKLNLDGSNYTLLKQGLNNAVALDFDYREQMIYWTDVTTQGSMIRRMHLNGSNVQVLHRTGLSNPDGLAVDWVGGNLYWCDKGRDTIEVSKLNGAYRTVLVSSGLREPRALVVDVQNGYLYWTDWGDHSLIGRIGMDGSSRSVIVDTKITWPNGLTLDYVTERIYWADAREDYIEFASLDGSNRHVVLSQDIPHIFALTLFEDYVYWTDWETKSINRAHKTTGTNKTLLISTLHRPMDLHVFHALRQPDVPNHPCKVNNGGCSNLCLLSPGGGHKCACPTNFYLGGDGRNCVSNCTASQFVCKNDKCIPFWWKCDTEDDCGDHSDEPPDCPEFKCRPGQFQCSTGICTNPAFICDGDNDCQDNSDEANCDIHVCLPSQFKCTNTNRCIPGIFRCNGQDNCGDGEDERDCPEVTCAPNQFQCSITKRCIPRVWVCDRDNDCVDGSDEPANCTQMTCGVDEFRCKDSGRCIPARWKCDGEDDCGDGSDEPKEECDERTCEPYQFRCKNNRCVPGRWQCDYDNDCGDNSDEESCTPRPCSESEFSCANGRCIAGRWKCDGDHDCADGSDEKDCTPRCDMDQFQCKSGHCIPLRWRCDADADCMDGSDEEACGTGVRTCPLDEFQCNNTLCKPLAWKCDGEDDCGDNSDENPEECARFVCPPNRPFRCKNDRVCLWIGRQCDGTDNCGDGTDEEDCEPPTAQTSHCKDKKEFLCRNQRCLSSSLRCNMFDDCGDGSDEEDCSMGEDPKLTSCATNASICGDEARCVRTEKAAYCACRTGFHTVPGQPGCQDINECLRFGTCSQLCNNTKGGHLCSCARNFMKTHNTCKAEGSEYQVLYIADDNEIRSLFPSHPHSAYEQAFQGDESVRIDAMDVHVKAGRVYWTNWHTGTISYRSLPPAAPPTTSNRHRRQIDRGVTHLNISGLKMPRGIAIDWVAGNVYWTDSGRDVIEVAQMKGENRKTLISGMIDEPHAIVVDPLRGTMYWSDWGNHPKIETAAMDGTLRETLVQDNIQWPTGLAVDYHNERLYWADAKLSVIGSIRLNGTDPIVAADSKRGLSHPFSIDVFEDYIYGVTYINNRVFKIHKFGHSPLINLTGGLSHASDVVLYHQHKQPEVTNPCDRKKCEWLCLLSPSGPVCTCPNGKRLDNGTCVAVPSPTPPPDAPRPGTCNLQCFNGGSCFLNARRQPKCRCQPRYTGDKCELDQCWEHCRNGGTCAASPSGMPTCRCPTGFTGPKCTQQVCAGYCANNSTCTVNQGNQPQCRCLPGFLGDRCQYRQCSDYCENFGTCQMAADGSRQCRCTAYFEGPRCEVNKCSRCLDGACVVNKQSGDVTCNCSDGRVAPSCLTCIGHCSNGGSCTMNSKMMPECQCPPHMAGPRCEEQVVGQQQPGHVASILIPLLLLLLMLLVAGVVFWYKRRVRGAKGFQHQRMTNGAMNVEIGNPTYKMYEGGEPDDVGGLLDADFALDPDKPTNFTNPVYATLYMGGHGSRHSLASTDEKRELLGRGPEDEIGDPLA
UniProt P17936, residues 28-291: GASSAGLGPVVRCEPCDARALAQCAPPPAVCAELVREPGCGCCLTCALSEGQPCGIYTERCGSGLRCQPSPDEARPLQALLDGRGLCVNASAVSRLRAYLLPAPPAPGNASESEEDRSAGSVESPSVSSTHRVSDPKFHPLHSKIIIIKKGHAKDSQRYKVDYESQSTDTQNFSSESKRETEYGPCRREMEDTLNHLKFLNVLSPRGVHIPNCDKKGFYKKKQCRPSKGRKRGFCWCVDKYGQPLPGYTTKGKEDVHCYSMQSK
UniProt P01137, residues 279-390: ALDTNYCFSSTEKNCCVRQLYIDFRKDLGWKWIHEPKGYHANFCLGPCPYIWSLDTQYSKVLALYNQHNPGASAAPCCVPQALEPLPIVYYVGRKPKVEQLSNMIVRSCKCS

Experiments:
[1] = molecular target: TβR-V purified from bovine liver plasma membranes (bovine) (UniProt E1BGJ0); assay: affinity labeling: 10 nM 125I-IGFBP-3 on purified bovine TβR-V, DSS cross-linking, SDS-PAGE, autoradiography
[2] = molecular target: TβR-V purified from bovine liver plasma membranes (bovine) (UniProt E1BGJ0); assay: affinity labeling: 0.1 nM 125I-TGF-β1 on purified bovine TβR-V, DSS cross-linking, SDS-PAGE, autoradiography
[3] = molecular target: T1, α2M activated by methylamine (α2M*) (human) (UniProt P01023); assay: α2M*-Sepharose 4B affinity chromatography at pH 6 of bovine liver plasma membrane extracts; heavy chain detected by Western blot (data not shown)
T1 sequence (activated by methylamine; 125I-labelled where used as tracer, looked up): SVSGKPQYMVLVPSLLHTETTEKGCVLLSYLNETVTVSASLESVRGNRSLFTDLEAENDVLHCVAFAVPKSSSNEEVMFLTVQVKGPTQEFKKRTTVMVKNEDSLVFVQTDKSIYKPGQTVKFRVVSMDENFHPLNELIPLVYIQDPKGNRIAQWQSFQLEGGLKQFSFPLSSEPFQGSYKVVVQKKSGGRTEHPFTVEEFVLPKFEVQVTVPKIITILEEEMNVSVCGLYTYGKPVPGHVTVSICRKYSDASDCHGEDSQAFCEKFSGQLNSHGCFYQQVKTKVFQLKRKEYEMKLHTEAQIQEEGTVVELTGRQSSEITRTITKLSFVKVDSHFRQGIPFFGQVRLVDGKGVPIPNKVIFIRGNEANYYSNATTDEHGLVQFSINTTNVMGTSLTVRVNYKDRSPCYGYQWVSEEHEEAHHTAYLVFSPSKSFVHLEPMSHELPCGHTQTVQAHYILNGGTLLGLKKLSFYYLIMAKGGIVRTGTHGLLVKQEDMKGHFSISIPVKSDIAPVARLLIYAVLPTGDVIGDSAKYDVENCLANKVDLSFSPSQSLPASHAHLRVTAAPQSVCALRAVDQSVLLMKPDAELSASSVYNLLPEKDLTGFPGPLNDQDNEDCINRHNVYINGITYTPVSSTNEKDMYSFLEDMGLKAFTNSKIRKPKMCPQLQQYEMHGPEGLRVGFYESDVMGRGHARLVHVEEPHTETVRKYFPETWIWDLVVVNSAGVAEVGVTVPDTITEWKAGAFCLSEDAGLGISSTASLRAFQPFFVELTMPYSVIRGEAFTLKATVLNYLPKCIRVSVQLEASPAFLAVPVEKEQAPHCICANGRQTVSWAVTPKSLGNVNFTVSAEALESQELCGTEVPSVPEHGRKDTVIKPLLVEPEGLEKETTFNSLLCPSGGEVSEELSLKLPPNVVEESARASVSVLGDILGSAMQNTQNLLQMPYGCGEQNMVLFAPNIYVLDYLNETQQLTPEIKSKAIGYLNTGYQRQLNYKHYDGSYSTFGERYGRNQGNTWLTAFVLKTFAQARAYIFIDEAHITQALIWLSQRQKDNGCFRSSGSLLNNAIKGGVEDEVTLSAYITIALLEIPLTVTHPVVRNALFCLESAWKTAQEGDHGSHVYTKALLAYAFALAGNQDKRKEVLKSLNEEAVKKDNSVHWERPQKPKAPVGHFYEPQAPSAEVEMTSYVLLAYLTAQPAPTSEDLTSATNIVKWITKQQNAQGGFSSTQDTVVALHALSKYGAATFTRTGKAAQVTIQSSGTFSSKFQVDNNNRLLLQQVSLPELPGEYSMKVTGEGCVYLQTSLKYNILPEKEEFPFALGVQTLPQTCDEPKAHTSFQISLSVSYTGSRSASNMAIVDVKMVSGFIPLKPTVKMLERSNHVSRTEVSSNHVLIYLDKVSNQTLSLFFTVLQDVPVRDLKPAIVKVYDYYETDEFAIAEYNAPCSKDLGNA

For “Human IGFBP-3 (expressed in E. Coli, M.W. ~35,000) (from UniProt P17936 28-291) (ligand)”, the binding [1] was “binds”.

For “Human TGF-β1 (from UniProt P01137 279-390) (ligand)”, the binding [2] was “binds”.

“TβR-V purified from bovine liver plasma membranes (from UniProt E1BGJ0 20-4546) (receptor)” was tested, and the binding [3] was “binds”.
